Source: publication PMC4872126

The chains behind the UniProt entries cited, without tags or fusion partners. Where a name states a change or a piece, a line headed by the entry shows the natural chain unless it says otherwise. Residues count along the entry.
UniProt P54132, 642-1290: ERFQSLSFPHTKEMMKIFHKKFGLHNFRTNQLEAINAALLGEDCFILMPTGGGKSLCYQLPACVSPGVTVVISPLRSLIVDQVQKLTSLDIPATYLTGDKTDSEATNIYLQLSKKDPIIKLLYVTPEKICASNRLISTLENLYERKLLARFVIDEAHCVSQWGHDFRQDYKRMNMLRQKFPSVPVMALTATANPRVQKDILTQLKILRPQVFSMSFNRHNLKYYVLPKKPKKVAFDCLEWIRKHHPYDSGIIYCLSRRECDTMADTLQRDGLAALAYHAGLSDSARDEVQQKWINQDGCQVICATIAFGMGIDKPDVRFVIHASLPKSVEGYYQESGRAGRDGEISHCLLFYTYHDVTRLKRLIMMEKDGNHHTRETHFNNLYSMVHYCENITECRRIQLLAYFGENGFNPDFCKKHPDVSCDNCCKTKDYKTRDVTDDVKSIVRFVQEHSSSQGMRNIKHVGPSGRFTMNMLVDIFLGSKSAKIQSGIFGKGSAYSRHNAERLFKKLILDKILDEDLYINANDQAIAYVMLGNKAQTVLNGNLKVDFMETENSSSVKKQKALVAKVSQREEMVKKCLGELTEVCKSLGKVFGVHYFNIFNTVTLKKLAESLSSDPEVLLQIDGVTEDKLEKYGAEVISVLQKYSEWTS
UniProt P15043: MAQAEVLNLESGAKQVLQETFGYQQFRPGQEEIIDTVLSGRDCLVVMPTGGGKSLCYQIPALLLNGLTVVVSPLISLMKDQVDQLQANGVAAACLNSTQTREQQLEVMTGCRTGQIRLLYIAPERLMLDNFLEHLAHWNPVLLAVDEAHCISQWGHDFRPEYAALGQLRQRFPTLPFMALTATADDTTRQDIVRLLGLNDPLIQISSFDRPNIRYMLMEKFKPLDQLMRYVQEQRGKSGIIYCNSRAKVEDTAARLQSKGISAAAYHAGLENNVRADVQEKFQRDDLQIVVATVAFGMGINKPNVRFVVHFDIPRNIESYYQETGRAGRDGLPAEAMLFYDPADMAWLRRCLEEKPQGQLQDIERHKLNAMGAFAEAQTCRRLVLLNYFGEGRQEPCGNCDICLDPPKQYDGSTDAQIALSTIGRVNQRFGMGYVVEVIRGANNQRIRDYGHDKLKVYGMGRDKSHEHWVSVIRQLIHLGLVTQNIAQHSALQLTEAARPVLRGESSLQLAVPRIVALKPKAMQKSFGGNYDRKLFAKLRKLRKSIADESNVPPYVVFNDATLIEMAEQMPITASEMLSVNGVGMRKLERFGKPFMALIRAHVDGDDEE

Tests used:
Experiment in all cases: fluorescence anisotropy
BLM full-length (human) = BLM full-length (human) (UniProt P54132); settings: 50 mM Tris-HCl pH 8.0, 50 mM NaCl, 1 mM DTT, 25 C, 200 nM protein, 5 nM 3'-fluorescein DNA, recombinant protein, single-stranded DNA; for binding result: residues 1-1417, label: 3'-fluorescein
BLM642-1290 (human) = BLM642-1290 (human) (UniProt P54132); settings: 50 mM Tris-HCl pH 8.0, 50 mM NaCl, 1 mM DTT, 25 C, 200 nM protein, 5 nM 3'-fluorescein DNA, recombinant protein, single-stranded DNA; for binding result: residues 642-1290, label: 3'-fluorescein
[1] = target: RecQ E. coli (Escherichia coli) (UniProt P15043); settings: 50 mM Tris-HCl pH 8.0, 50 mM NaCl, 1 mM DTT, 25 C, 200 nM protein, 5 nM 3'-fluorescein DNA, recombinant protein, label: 3'-fluorescein, single-stranded DNA
[2] = Cd2+ + Zn2+ equimolar (synergistic inhibition)

Sequence | binding result (BLM full-length (human); [2]) | binding result (BLM full-length (human); Zn2+ alone) | binding result (BLM642-1290 (human); [2]) | binding result (BLM642-1290 (human); Zn2+ alone, >50 uM (no inhibition <15 uM)) | binding signal (% of activity without metal) ([1]; 100 uM Zn2+ alone) | binding result ([1]; Cd2+ + Zn2+ equimolar (Cd2+ effect not reversed)) | IC50 (BLM full-length (human); IC50 of CdCl2 inhibiting binding (not protein affinity), 5 nM DNA, residues 1-1417, label: 3'-fluorescein) | binding result (BLM642-1290 (human); 50 uM Cd2+ + 0.5 mM NEM, 2 mM DTT) | binding result (BLM642-1290 (human); 50 uM Cd2+, 2 mM DTT) | binding result (BLM642-1290 (human); 100 uM Cd2+ and DNA pre-incubated with 5 mM His (partially restored), 10 nM DNA) | binding result (BLM642-1290 (human); 100 uM Cd2+ and DNA pre-incubated with 5 mM Val (partially restored), 10 nM DNA) | binding result (BLM642-1290 (human); Cd2+, 0.2 mM DTT) | IC50 (BLM642-1290 (human); IC50 of CdCl2 inhibiting binding (not protein affinity), 5 nM DNA, residues 642-1290, label: 3'-fluorescein) | binding result (BLM642-1290 (human); protein pre-incubated with 100 uM Cd2+, then 5 mM Cys, His or Val (not restored)) | IC50 ([1]; IC50 of CdCl2 inhibiting binding (not protein affinity), 5 nM DNA)
GCCCTGCTGCCGACCAACGAAGGT [F-24 ss] | binds more weakly | binds more weakly | binds more weakly | binds more weakly | 85 | binds more weakly |  |  |  |  |  |  |  |  | 
GCCTCGCTGCCGTCGCCA [F-18] |  |  |  |  |  |  | 6.67 µM | binds | binds more weakly | binds more weakly | binds more weakly | binds more weakly | 9.22 µM | binds more weakly | 41.7 µM

The exact form of at least one protein or probe is not confirmed. The comparison behind a weaker result is the experiment's own reference, which may not be listed here. For part of these data: Whether high values mean tight binding is not given here for every scale.
